# The list shows a part of the results. This data set is noisy: repeats of one test often differ as much as different tests do.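 A first-round screen of about ten thousand compounds sought those raising reporter output, using human embryonic kidney cells briefly transfected with a plasmid carrying a Renilla luciferase gene driven by the HSV-TK promoter.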
# What was measured:
# Test in all cases: log relative Renilla luciferase luminescence (reporter expression vs reference, reference not stated) (log (base not stated)); higher = higher recombinant reporter expression
# Settings in all cases: 10 µM; time after transfection 48 h
# HEK 293FT [1] = test system: HEK 293FT
# Description: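 HEK 293FT cells transiently transfected with pRL-TK (Renilla luciferase) were treated with compounds at 10 uM and luminescence was read about 42 h later. Values are log relative Renilla luminescence (log base and reference not stated). Single-pass screen; ICCB Known Bioactives library.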
# HEK 293FT [2] = test system: HEK 293FT; remark: listed apart in the source
# HEK 293FT [3] = test system: HEK 293FT; remark: listed apart in the source
# HEK 293FT [4] = test system: HEK 293FT; remark: listed apart in the source
# Description: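 HEK 293FT cells transiently transfected with pRL-TK (Renilla luciferase) were treated with compounds at 10 uM and luminescence was read about 42 h later. Values are log relative Renilla luminescence (log base and reference not stated). Single-pass screen; 2080 natural products library.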
# HEK 293FT [5] = test system: HEK 293FT; remark: listed apart in the source
smiles,measurement,setting,value
O=C1Nc2ccccc2/C1=C1/Nc2ccccc2C1=O [Indirubin],log,HEK 293FT [1],-0.25
NC(=O)c1ccc(-c2nc(-c3ccccn3)c(-c3ccc4c(c3)OCO4)[nH]2)cc1,log,HEK 293FT [1],-0.722
same,log,HEK 293FT [2],0.225
COc1cc2ncc(-c3ccccc3)nc2cc1OC,log,HEK 293FT [1],-0.368
CC1(COc2ccc(CC3SC(=O)NC3=O)cc2)CCCCC1 (stereo unspecified) [Ciglitazone],log,HEK 293FT [1],0.173
same,log,HEK 293FT [2],-0.315
COC(=O)Nc1nc2cc(C(=O)c3cccs3)ccc2[nH]1 [Nocodazole],log,HEK 293FT [1],-0.625
same,log,HEK 293FT [2],-0.0863
COc1cccc(-c2cc(=O)c3ccccc3o2)c1N,log,HEK 293FT [1],0.0989
same,log,HEK 293FT [2],0.131
CC(O)(C(=O)Nc1ccc(S(=O)(=O)c2ccccc2)cc1)C(F)(F)F (stereo unspecified),log,HEK 293FT [1],-0.812
same,log,HEK 293FT [2],-0.0416
Cc1c(C(=O)NN2CCCCC2)nn(-c2ccc(Cl)cc2Cl)c1-c1ccc(I)cc1,log,HEK 293FT [1],0.0452
same,log,HEK 293FT [3],-0.115
same,log,HEK 293FT [2],0.0209
Nc1ncnc2c1c(I)cn2[C@@H]1O[C@H](CO)[C@@H](O)[C@H]1O [5-Iodotubercidin],log,HEK 293FT [1],-1.04
COc1ccc2c(c1)c(CC(=O)O)c(C)n2C(=O)c1ccc(Cl)cc1 [Indomethacin],log,HEK 293FT [1],0.353
same,log,HEK 293FT [3],-0.135
O=C1Nc2ccc(I)cc2/C1=C/c1cc(Br)c(O)c(Br)c1,log,HEK 293FT [1],-0.113
same,log,HEK 293FT [2],0.0637
CC(=Cc1ccc(C(=O)O)cc1)c1ccc2c(c1)C(C)(C)CCC2(C)C,log,HEK 293FT [1],-0.0503
same,log,HEK 293FT [2],-0.0524
OCCN(CCO)c1nc(N2CCCCC2)c2nc(N(CCO)CCO)nc(N3CCCCC3)c2n1 [Dipyridamole],log,HEK 293FT [1],-0.495
same,log,HEK 293FT [2],-0.102
O=C1NCN(c2ccccc2)C12CCN(CCCC(c1ccc(F)cc1)c1ccc(F)cc1)CC2 [Fluspiriline],log,HEK 293FT [1],-0.482
C[C@@H](N)[C@H]1CC[C@H](C(=O)Nc2ccncc2)CC1,log,HEK 293FT [1],-0.169
same,log,HEK 293FT [2],0.027
CC(=O)OCOC(c1ccc2ccccc2c1)P(=O)(OCOC(C)=O)OCOC(C)=O (stereo unspecified),log,HEK 293FT [1],0.331
Cc1cccc(Nc2cc(Cl)nc(SCC(=O)O)n2)c1C,log,HEK 293FT [1],-0.23
same,log,HEK 293FT [2],-0.0109
CCCCCCCCCCCCCCCC(O)C(N)CO (racemic) [DL-Dihydrosphingosine],log,HEK 293FT [1],0.0279
O=c1c(O)c(-c2ccc(O)c(O)c2)oc2cc(O)cc(O)c12 [Quercetin],log,HEK 293FT [1],-0.226
same,log,HEK 293FT [4],-0.0581
COC(=O)C1=C(C)NC(C)=C(C(=O)OCCSc2ccccc2)C1C (stereo unspecified),log,HEK 293FT [1],-0.36
same,log,HEK 293FT [5],0.118
same,log,HEK 293FT [2],0.00743
CS(=O)(=O)Nc1ccc([N+](=O)[O-])cc1OC1CCCCC1,log,HEK 293FT [1],0.0335
Fc1ccc(C(c2ccc(F)cc2)N2CCN(C/C=C/c3ccccc3)CC2)cc1 [Flunarizine],log,HEK 293FT [1],0.0506
same,log,HEK 293FT [5],0.0177
CCCc1c(OCCCCc2nnn[nH]2)ccc(C(C)=O)c1O,log,HEK 293FT [1],-0.119
same,log,HEK 293FT [3],0.0439
CC1=Nc2ccc(Cl)cc2S(=O)(=O)N1 [Diazoxide],log,HEK 293FT [1],0.485
same,log,HEK 293FT [2],0.103
Oc1ccc(/C=C/c2cc(O)cc(O)c2)cc1 [Resveratrol],log,HEK 293FT [1],-0.636
same,log,HEK 293FT [4],0.0772
same,log,HEK 293FT [2],0.0836
CC(=O)N[C@@H](CC(C)C)C(=O)N[C@@H](CC(C)C)C(=O)N[C@H](C=O)CCCNC(=N)N [Leupeptin],log,HEK 293FT [1],0.363
CCOC(=O)C1=C(C)NC(C)=C(C(=O)OC)C1c1cccc([N+](=O)[O-])c1 (stereo unspecified) [Nitrendipine],log,HEK 293FT [1],-1.43
same,log,HEK 293FT [2],0.035
CCOC(=O)C1=C[C@]2(CC)CCCN3CCc4c(n1c1ccccc41)[C@@H]32 [Vinpocetine],log,HEK 293FT [1],-0.303
same,log,HEK 293FT [2],-0.00649
CC(/C=C/c1cccc(Oc2ccc(F)cc2)c1)N(O)C(N)=O (stereo unspecified),log,HEK 293FT [1],-0.0741
same,log,HEK 293FT [2],-0.119
C=C(C)[C@@H]1CC[C@]2(C(=O)O)CC[C@]3(C)[C@H](CC[C@@H]4[C@@]5(C)CC[C@H](O)C(C)(C)[C@@H]5CC[C@]43C)[C@@H]12 [Betulinic acid],log,HEK 293FT [1],-0.186
same,log,HEK 293FT [4],-0.0729
CC/C=C\C/C=C\C/C=C\C/C=C\C/C=C\CCCCCC(=O)O [Docosapentaenoic acid],log,HEK 293FT [1],-0.374
O=C1NC(=O)C(c2ccccc2[N+](=O)[O-])=C1Nc1ccc(O)c(Cl)c1,log,HEK 293FT [1],-0.13
same,log,HEK 293FT [2],0.0569
COCc1nc2c([nH]1)c(=O)n(C)c(=O)n2CC(C)C [8-Methoxymethyl-IBMX],log,HEK 293FT [1],-0.285
Oc1cc2c(cc1O)CN(C(=S)NCCc1ccc(Cl)cc1)CCC2 [Capsazepine],log,HEK 293FT [1],-1.31
same,log,HEK 293FT [2],0.123
C=C1C(=O)O[C@H]2[C@H]1CC/C(C)=C/CC[C@@]1(C)O[C@@H]21 [Parthenolide],log,HEK 293FT [1],-1.14
same,log,HEK 293FT [4],-0.596
same,log,HEK 293FT [2],0.155
CCCC[C@@H](C=O)NC(=O)[C@H](CC(C)C)NC(=O)OCc1ccccc1 [Calpeptin],log,HEK 293FT [1],-0.0949
same,log,HEK 293FT [2],0.0747

# A second format for some results above:
smiles	measurement	setting	value
NC(=O)c1ccc(-c2nc(-c3ccccn3)c(-c3ccc4c(c3)OCO4)[nH]2)cc1	log	HEK 293FT [2]	0.225
COc1cc2ncc(-c3ccccc3)nc2cc1OC	log	HEK 293FT [1]	-0.368
CC1(COc2ccc(CC3SC(=O)NC3=O)cc2)CCCCC1 (stereo unspecified) [Ciglitazone]	log	HEK 293FT [1]	0.173
